These results are taken from US20050215770A1.

These are yes or no findings as the source states them, for the method shown. Some binding calls cover weakened binding; strength is not graded here. Where a sequence is shown, tags or fusion partners need not be part of it.

First the molecules themselves.
T1: Recombinant soluble human Flag-tagged NogoR (amino acids 1 to 309 of SEQ ID NO:2) (human) (UniProt Q9BZR6)
T1 sequence (chain, biotinylated with Sulfo-NHS-LC-Biotin): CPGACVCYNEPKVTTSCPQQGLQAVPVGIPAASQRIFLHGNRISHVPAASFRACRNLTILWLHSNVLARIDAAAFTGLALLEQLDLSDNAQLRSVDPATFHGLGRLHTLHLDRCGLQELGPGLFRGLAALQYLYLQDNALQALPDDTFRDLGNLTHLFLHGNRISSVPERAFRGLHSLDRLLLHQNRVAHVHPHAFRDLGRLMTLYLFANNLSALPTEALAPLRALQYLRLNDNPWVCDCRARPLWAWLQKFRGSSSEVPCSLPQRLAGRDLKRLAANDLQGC

B1: NGF0954 (scFv)
scFv: EVQLVETGGGLVQPGGSLRLSCAASGFTVSTDYMSWVRQAPGKGLEWVSVIYPGGITCYADSVKGRFSISRESSKNTVYLQMNSLRAEDTAIYYCAREVADYYGMDVWGQGTLVTVSSGGGGSGGGGSGGGGSALEIVLTQSPATLSLSPGERATLSCRASQNVNIYLAWYQQKPGQPPRVLIYDASKRATGIPARFSGSGSGTDFTLTISSLEPEDFAVYYCQQRFDWPPITLGQGTRLEIKR
B2: NGF1C04 (scFv)
scFv: QVQLQQSGPGLVRPSQTLSLACTVSGDSISSGDYYWTWIRQHPGKGLEWIGYISTRGSPYYNPSFMNRVAISIDSSKNQFSLNLSSVTAADTAVYYCTRETQHTSIFGVIHNWLDPWGQGTLVTVSSGGGGSGGGGSGGGGSAQAVLTQPSSASGTPGQRVSISCSGSSSNIGSNTVNWYQQLPGTAPKLLIYSGNQRPSGVPDRFSGSKSGTSASLAISGLQSEDEADYYCAAWDDSLNNLVFGPGTKVTVLG
B3: NGF0788 (scFv)
scFv: QVQLVQSGGGLVKPGGSLRLSCAASGFTFSRYSMNWVRQAPGKGLEHVSAIIANGDSTYYTNSVKGRFTISRDNSKNRLYLQMGSLRPEDTAVYYCVRDGPGGQWGAFDIWGKGTLVTVSSGGGGSGGGGSGGGGSAQAVVIQEPSLSVSPGGTISLTCGLASGSVSSNHHPSWYQQTPGHTPRTLIYSATTRSTGVPDRFSGSILGNKAALTITGAQTEDESDYYCMLYLGPGIWVFGGGTKVTVLG
B4: NGF1E07 (scFv)
scFv: EVQLVESGAEVKKPGASVKVSCKVSGDTLAELTMHWVRQAPGNGLEWMGGYDPESGETKHAQKFQGRVTMTEDTSTDTAYMELSSLRSEDTAVYYCAADRRHWGSLDVWGKGTLVTVSSGGGGSGGGGSGGGGSALSYVLTQPPSVSEAPGQRVTISCSGGNVGSSSVNWYQQLPGKAPTLLIYYDTVLTSGVSARFSGSRSATSASLAISGLQSEDEADYYCAIWDDSLNAWVFGGGTQLTVLS
B5: NGF0577 (scFv)
scFv: QVQLQQSGAEVKKPGASVKVSCKASGYTFSAYAIHWVRQAPGQRLEWVGRASGGNYNRKYSQKLQDRVTFTSDTSATTAYMELSSLTSEDTAVYYCVREDHDYDLWSDYKGLDVWGRGTLVTVSSGGGGSGGGGSGGGGSAQSALTQPASVSGSPGQSITISCTGISGGIGAHNLVSWYQQHPGEAPTLMIFEDTKRPSGVSNRFSGSKSGNTASLTISALQTEDEADYYCFSYPRSGGGMLGFGGGTKVTVLG
B6: NGE2925 (scFv)
scFv: QVQLQESGPGLVKPSETLSLTCVVSGGSISSSNWWSWVRQPPGKGLEWIGEIYHSGSPNYNPSLKSRVTISVDKSKNQFSLKLSSVTSADTAVYYCARQWEGIRSWGQGTLVTVSRGGGGSGGGGSGGGGSSELTQDPAVSVALGQTVRITCQGDSLRSYYASWYQQKPGQAPVLVIYGKNNRPSGIPDRFSGSSSGNTASLTITGARAEDEADYYCNSRDSSGNHVVFGGGTKLTVLG
B7: NGF0540 (scFv)
scFv: QVQLQESGPGVVKPSETLSLSCTVSGDSISTSDYYWGWVRQPPGKGLEWIGSLFYRGTTYYSPSLKSRVSISVDTSKNQFSLNLSSVTASDTAVYFCARHARFGRHDYLGERDVFDIWGRGTMVTVSSGGGGSGGGGSGGGGSALSYELTQPPSASGTPGQRVTISCSGSSPNIGSNTVNWYQQLPGTAPKLLIHTNNQRPSGVPDRFSGSKSGTSASLAISGLQSEDEADYYCASWDDSLNGVVFGGGTKLTVLG
B8: NGE2077 (scFv)
scFv: EVQLVQSGAEVKKPGSSVKVSCKASGDTFSSFGFSWVRQAPGQGLEWMGGIIPMYGTAKYAQKFQDRVTITADESMSTVYMELNSLRSDDTAVYYCARGPLVRYYFYYMDVWGRGTMVTVSSGGGGSGGGGSGGGGSQSVLTQPPSASGTPGQRVTISCSGSSSNIGSNTVNWYQRLPGAAPQLLIYNNDQRPSGIPDRFSGSRSGTSGSLVISGLQSEDEADYYCASWDDSLNGRVFGGGTKLTVLG
B9: NGE2105 (scFv)
scFv: QVQLVQSGGGVVQPGESLRLSCAASGFTLSSYAMAWVRQAPGKGLEWIGNIYFGGSAYYNPSLKSRVTISLATSENQFSLKLTSVTAADTAMYFCAREINDYGDFGGYDLWGQGTMVTVSSGGGGSGGGGSGGGGSQSVLTQPASVSGSPGQSITISCTGTSSDVGGYNYVSWYQQHPGKTPKLMIYEGSKRPSGISNRFSGSKSGNTASLTISGLQAEDEADYYCSSYTTRSTRVFGGGTKLTVLG
B10: NGG2105 (scFv)
scFv: EVQLLESGGGLVQPGGTLRLSCATSGFTFSSYAMSWVRQAPGKGLDWVSAISGSGGSTYYSHSVKGRFTISRDNSKNTLYLQMNSLRAEDTAVYYCAREGHFDYVSGSFSLWGQGTTVTVSSGGGGSGGGGSGGGGSALSYVLTQPPSVSVSPGQTTSVICSGNKLEDKYVSWYQQKPGQSPVLVIYQDATRPSGIPERFSASNSGNTATLTISGTQAIDEADYYCQVWDSSTGVVFGGGTKLTVLG
B11: NGF0719 (scFv)
scFv: EVQLVQSGTEVKKPGASVKVSCKASGYTFSSYYMHWVRQAPGQGLEWMGVINPGGDVTGYAPKFQDRVTMTRDTSTSTLYMELSSLRSEDTALYYCARDSDTGWFSIDYWGRGTLVTVSSGGGGSGGGGSGGGGSAQAVLTQPSSVSGTPGQTVIISCSGSNSNIRGNTVNWYQQLPGSAPRLLIYSNNIRPSGVPDRFSGSKSDTSASLAISGLQSEDEADFYCATWDDSLRGLVIGGGTKLTVLG
B12: NGE3064 (scFv)
scFv: EVQLVQSGGGVVQPGRSLRLSCAASGFTFSDYGIHWVRQAPGKGLEWVAAILYDGSNQFYTDSVKGRFTLSRDISKNTLYLQMNSLRVEDTAVYYCVRDLVAAAGTGLPIGSVWGRGTMVTVSSGGGGSGGGGSGGGGSQSVLTQPASVSGSPGQSITISCTGTSSDVGGYNYVSWYQQHPGKAPKFMIYDVSKRPSGVSNRFSGSKSGNTASLTISGVQAEDEADYYCSSYTSASTVIFGGGTKLTVLG
B13: NGF0770 (scFv)
scFv: QVQLQESGGGLVQPGGSLRLSCGASGFTFRSYWMHWVRQVPGKGLAWVSRINSDGSSTWYADSVKGRLTTSRDNAKNTLYLQMNSLRIEDTAVYYCARGDPEELRSDSYFYYGMDVWGRGTLVTVSSGGGGSGGGGSGGGGSAQAVVIQEPSLTVSPGGTVTLTCSSSTGAVASGHSPTWFQQKYGQEPRTLIYSSIIKHSWTPARFSGSLLGGKAALTLSGVQPEDEADYYCLLYFGDGWVCGGGTQLTVLS
B14: NGE2122 (scFv)
scFv: EVQLVQSGAEVKKPGSSVKVSCKASGGTLRSFAISWVRQAPGQGLEWVGRIIPVLNIADYAQKFRGRVTLTADDFTDTAYMELSRLTSDDSAIYYCAKDRETVTTNWAYYFDYWGQGTMVTVSSGGGGSGGGGSGGGGSQSALTQPASVSGSRGQSITISCTGTTGDVGGYDYVSWYQQHPGKAPKLLIYGNSNRPSGVPDRFSASKSGNTASLTISGLQAEDEADYFCSTYAPPGIIMFGGGTKLTVLG
B15: NGF0808 (scFv)
scFv: QVQLQESGGGVVQPGKSLRLSCAASGFAFSRSSMHWVRQAPGKGLEWVSVISYDGSIKYYADSVKGRFTISRDNSKNTMYLQMNSLRPEDTAVFYCARPLQGIPAAGLDYWGRGTMVTVSSGGGGSGGGGSGGGGSAQSVLTQPPSVSAAPGQKVTISCSGISSNIGNNHVSWYQQFPGTAPKLLIYDSNKRPSGIPDRFSGSKSGTSATLDITGLQTGDEADYYCGTWDNSLSAGVFGGGTKLTVLG
B16: NGF3C10 (scFv)
scFv: QLQLQESGPGLVKPSGTLSLTCAVTGDSITSNNWWSWVRQAPGKGLEWIGDVYHTGTTNYNPSLKSRVTISVDESKNQFSLKVTSVTTADTAVYYCAREEYDVWSGPMDVWGQGTLVTVSSGGGGSGGGGSGGGGSAQAVLTQPSSVSGAPGQRVSISCTGSSSNIGAGYDVHWYQQLPGTAPKLLIYGNINRPSGVPDRFSGSKSGTSASLAITGLQAEDEADYYCQSYDSSLRAAVFGGGTKVTVLG

One assay addresses T1, Recombinant soluble human Flag-tagged NogoR (amino acids 1 to 309 of SEQ ID NO:2) (human). Description: ECL phage screen (Example 1).
Consider B1, for which the binding entry is on record as “binds”.
Take B2: the binding entry is listed as “binds”.
Still for that read-out and setting: as for B3, the entry is “binds”; as for B4, “binds”.
Regarding B5, the binding entry is on record as “binds”.
The same measure, in the same setting: with B6 the entry was “binds”.
The same measure, in the same setting: as for B7, the entry is “binds”; as for B8, “binds”; as for B9, “binds”.
Still for that read-out and setting: with B10 the entry was “binds”.
On to B11, for which the binding entry was “binds”.
The same measure, in the same setting: with B12 the entry was “binds”; with B13, “binds”; with B14, “binds”.
Still for that read-out and setting: as for B15, the entry is “binds”; as for B16, “binds”.

A further assay has the same target. Briefly: ECL phage screen on biotin-rHuNOGOSR-Flag (positive: 5-fold above background).
On to B1, for which the binding entry is “binds”.
On the same count and under the same terms, as for B3, the entry is “binds”.
The same measure, in the same setting: as for B5, the entry is “binds”; as for B6, “binds”.
The same measure, in the same setting: with B7 the entry was “binds”; with B8, “binds”; with B9, “binds”.
Regarding B10, the binding entry is listed as “binds”.
Regarding B11, the binding entry is “binds”.
Still for that read-out and setting: as for B12, the entry is “binds”; as for B13, “binds”; as for B14, “binds”.
Same read-out and setting: with B15 the entry was “binds”.

A further assay shares this target. Description: ECL competition vs Ori-TAG Rat MAG-Fc, phage and/or soluble scFv.
Consider B2, for which the binding result is given as “binds”.
On the same count and under the same terms, as for B4, the entry is “binds”.
The same measure, in the same setting: with B6 the entry was “binds”.
On the same count and under the same terms, as for B7, the entry is “binds”; as for B8, “binds”.
On to B9, for which the binding entry is recorded as “binds”.
Still for that read-out and setting: as for B11, the entry is “binds”.
The same measure, in the same setting: as for B12, the entry is “binds”.
As for B14, the binding entry is on record as “binds”.
On the same count and under the same terms, as for B16, the entry is “binds”.
